Results taken from paper PMC4207043, “Distinct N-terminal regions of the exomer secretory vesicle cargo Chs3 regulate its trafficking itinerary” (Frontiers in Cell and Developmental Biology, 2014).
These are yes or no findings as the source states them, for the method shown. Sequences can lack the tags named with a protein.

Molecular target: T1, Recombinant "core" exomer complex (Chs5 residues 1–77 and Chs6-6xHis) (S. cerevisiae) (UniProt Q12114+P40955)
T1 sequence 1: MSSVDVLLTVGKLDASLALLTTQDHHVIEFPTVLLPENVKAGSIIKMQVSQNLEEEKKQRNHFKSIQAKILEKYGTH
T1 sequence 2: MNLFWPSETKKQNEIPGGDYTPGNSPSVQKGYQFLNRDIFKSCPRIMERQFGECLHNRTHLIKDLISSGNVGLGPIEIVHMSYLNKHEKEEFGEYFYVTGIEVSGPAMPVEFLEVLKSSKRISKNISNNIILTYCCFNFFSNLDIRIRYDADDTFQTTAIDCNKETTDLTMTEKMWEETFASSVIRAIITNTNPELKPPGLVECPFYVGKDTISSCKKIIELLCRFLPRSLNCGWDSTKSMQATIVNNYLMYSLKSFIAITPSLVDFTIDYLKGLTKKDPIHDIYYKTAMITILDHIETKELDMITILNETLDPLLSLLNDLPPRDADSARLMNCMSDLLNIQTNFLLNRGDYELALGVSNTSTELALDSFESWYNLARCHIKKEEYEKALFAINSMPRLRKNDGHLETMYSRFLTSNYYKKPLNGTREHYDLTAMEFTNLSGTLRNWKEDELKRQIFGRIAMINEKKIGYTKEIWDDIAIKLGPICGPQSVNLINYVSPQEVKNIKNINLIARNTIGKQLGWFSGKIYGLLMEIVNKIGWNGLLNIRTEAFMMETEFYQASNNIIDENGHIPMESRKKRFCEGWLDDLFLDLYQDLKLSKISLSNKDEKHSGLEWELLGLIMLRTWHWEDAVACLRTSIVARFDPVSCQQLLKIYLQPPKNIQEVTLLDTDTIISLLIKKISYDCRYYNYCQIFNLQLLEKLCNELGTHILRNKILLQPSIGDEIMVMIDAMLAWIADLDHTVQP
Test: crystal structure; exomer crystals soaked with the peptide; additional electron density looked for; both purified

B1: Peptide corresponding to residues 1128–1165 of the Chs3 C-terminus (peptide, UniProt P29465 1128-1165)
peptide: QDENEGEFDHSKIKMRTWREFEREDILNRKEESDSFVA
B1 was tested, and the binding was “no binding”.
